From ChEMBL document CHEMBL3988442, “University of Dundee, Small-Polar-MMV Screening Library” (2021).

T. brucei: 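Whole-parasite assay of Trypanosoma brucei over 72 hours; the read-out is not stated. Tested at 30 µM. Direction is inferred from retests: higher values go with stronger inhibition. Values scatter widely below zero; nearly all retest evidence comes from the higher of the two concentrations used. Of about 64,000 compounds tested this way, about 940 (1.5%) reached 50% or more in at least one test.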
Toxoplasma: 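Assay of Toxoplasma gondii numbers, read through their beta-galactosidase reporter with a colour substrate. Concentration: 10 µM. The record gives no direction; the compounds picked for IC50 retests had high values, so higher reads as fewer parasites. About 67,000 compounds were tested under these conditions; 0.38% (about 260) showed 50% or more at least once.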

Each number is a percent effect as filed. The record does not define 0% and 100%; most values in the screen are far below 50% and negative numbers occur (in some assays of this library far below -100). The compounds are a random part of those screened.

With CN(C)C(=O)N1CCC2(CCC(C(=O)N3CCCC3)O2)CC1 (centres unmarked) the screen gave T. brucei: -26.33%; Toxoplasma: -2.305%. With O=S(=O)(NCC1(c2cccs2)CCCC1)c1cccnc1 the screen gave T. brucei: -41.73%; Toxoplasma: -15.92%. CN(C)CC(=O)N1CC(c2nn(C)c3nccnc23)C1 read T. brucei: 2.252%; Toxoplasma: 3.356%. Result for CN(CCCOc1ccccc1Cl)C(=O)CN1C(=O)CCNC1=O was T. brucei: -71.59%; Toxoplasma: -12.84%. For Cc1nc(CN2CCCC(c3cc(C(F)(F)F)[nH]n3)C2)cs1 (centres unmarked) the result was T. brucei: 15.61%; Toxoplasma: -6.506%. Result for CS(=O)(=O)NCc1nnc2n1CCN(Cc1ccccn1)C2 was T. brucei: 73.82%; Toxoplasma: 8.423%. With CN1CCCC1c1cncc(C(=O)NCC2CC2)n1 (centres unmarked) the screen gave T. brucei: -8.328%; Toxoplasma: -6.197%.

Result for O=C(CN1C=Nc2ccccc2S1(=O)=O)NCCCc1ccccc1 was T. brucei: 15.74%; Toxoplasma: -0.8309%. Result for CCN(CC)C(CNC(=O)c1ccc(S(=O)(=O)NC)cc1)c1ccco1 (centres unmarked) was T. brucei: -7.638%; Toxoplasma: 33.42%. NC(=O)c1c(SCCN2CCCCC2)sc2c(O)cc(=O)[nH]c12 gave T. brucei: -22.84%; Toxoplasma: -3.213%. With c1cc(C2CCCN2CC2CCCCC2)n[nH]1 (centres unmarked) the screen gave Toxoplasma: -1.034%. O=C(O)C(F)(F)F.c1coc(CN2CCc3nnc(COc4cncnc4)n3CC2)c1 read T. brucei: 42.68%; Toxoplasma: -9.453%. O=C(NCCc1c[nH]cn1)c1n[nH]c2c1CCC2 read T. brucei: 9.757%; Toxoplasma: 21.29%. With CCOc1cc(C(=O)N2CCCC(n3nc(C)nc3C)C2)ccn1 (centres unmarked) the screen gave T. brucei: -11.85%; Toxoplasma: -47.98%.

O=C(Cc1ccccc1)N1CCC(c2nnc(-c3ccccn3)o2)CC1 read T. brucei: -27.11%; Toxoplasma: 20.39%. Result for Clc1cccc(-n2cnnn2)c1N1CCOCC1 was T. brucei: 6.119%; Toxoplasma: 9.341%. With c1ccc(C2CCCN2Cc2nc(-c3cnccn3)no2)nc1 (centres unmarked) the screen gave T. brucei: -2.807%; Toxoplasma: -2.367%. CC(=O)c1cccc(S(=O)(=O)N2CCC(c3noc(C)n3)CC2)c1 read T. brucei: -28.24%; Toxoplasma: 3.128%. Result for CN(C(=O)c1ccncc1Cl)c1ccccc1S(C)(=O)=O was T. brucei: -28.67%; Toxoplasma: -0.5325%. Result for O=C(O)C(F)(F)F.[H][C@@]12C[C@H](C(=O)NC3CC3)CN(Cc3ccc(F)cc3)[C@]1([H])CCO2 was T. brucei: -0.03748%; Toxoplasma: 4.926%. For CCCn1nc2c(cc1=O)CN(Cc1c(C)noc1C)CC2 the result was T. brucei: 2.621%; Toxoplasma: -8.256%.

Result for O=C1NCC2(CCCN(C(=O)Nc3ccc4occc4c3)CC2)O1 (centres unmarked) was T. brucei: -10.4%; Toxoplasma: 5.217%. COCC(=O)N1CCC(Cc2nccnc2-c2c(C)n[nH]c2C)C1 (centres unmarked) read T. brucei: -19.72%; Toxoplasma: 19.91%. With O=C(O)C(F)(F)F.[H][C@]12CCN(c3ccc(C)nn3)C[C@@]1([H])CN(Cc1cccnc1OC)C2 the screen gave T. brucei: -15.67%; Toxoplasma: -13.99%. Result for Cc1cccc2c1CCN(c1cc(N3CCCC3CO)ncn1)C2 (centres unmarked) was T. brucei: 28.82%; Toxoplasma: 6.369%. For CC(NC(N)=O)C(=O)NCc1cc(Br)ccc1F (centres unmarked) the result was T. brucei: -32.09%; Toxoplasma: 4.915%. CC(=O)N1CCN(CC(N)=O)CC(COc2ccccc2)C1 (centres unmarked) read T. brucei: -11.36%; Toxoplasma: -2.262%. For CS(=O)(=O)CCCNC(=O)C1(c2cccc(Cl)c2)CC1 the result was T. brucei: -2.401%; Toxoplasma: 7.375%.

Result for COc1ccc(C(=O)CCC(=O)NCc2c(C)noc2C)cc1F was T. brucei: -3.418%; Toxoplasma: 17.25%. With CC(C)c1cnc(CN(C)C2CCN(CCc3ccncc3)C2)o1 (centres unmarked) the screen gave T. brucei: -32.74%; Toxoplasma: 0.885%. Result for c1ccc(OCc2noc(CN3CCC(N4CCSCC4)CC3)n2)cc1 was T. brucei: -9.527%; Toxoplasma: -3.349%. For O=C(O)C(F)(F)F.[H][C@@]12CCN(c3cccc(F)c3)C[C@@]1([H])O[C@H](C(=O)N1CCCC1)C2 the result was T. brucei: -10.13%; Toxoplasma: 2.766%. For COCC(c1cccc(C(F)(F)F)c1)N(C)C(=O)c1ccncc1 (centres unmarked) the result was T. brucei: 3.683%; Toxoplasma: -9.174%. For NC(=O)Cn1c(CO)cnc1SCC(=O)NCc1ccccc1 the result was T. brucei: -17.16%; Toxoplasma: 7.539%. CC(=O)c1ccccc1NC(=O)CCN1CCSCC1 read T. brucei: -55.65%; Toxoplasma: 7.334%.

Some entries from above, unchanged:

| Compound | T. brucei | Toxoplasma |
|---|---|---|
| `O=C(O)C(F)(F)F.c1coc(CN2CCc3nnc(COc4cncnc4)n3CC2)c1` | 42.68 | -9.453 |
| `O=C(CN1C=Nc2ccccc2S1(=O)=O)NCCCc1ccccc1` | 15.74 | -0.8309 |
| `O=C(O)C(F)(F)F.[H][C@]12CCN(c3ccc(C)nn3)C[C@@]1([H])CN(Cc1cccnc1OC)C2` | -15.67 | -13.99 |
| `CN(C(=O)c1ccncc1Cl)c1ccccc1S(C)(=O)=O` | -28.67 | -0.5325 |